Record: PubChem BioAssay AID1224830 (NIAID, 2016)

Test: 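Host factors that control LPS-induced TNF expression in human macrophages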 (primary screen)
Cell system: human THP-1 monocytic leukaemia cells, TNF dual-luciferase reporter clone, PMA-differentiated to macrophage-like cells
Reagent: siRNA pool against human genes, 50 nM
Time to read-out: LPS for 4 h, given about 3 days after siRNA transfection
Treatment: bacterial LPS (TLR4 ligand), 10 ng/ml
Measured: 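Ratio of firefly to renilla light, scaled to the plate median and expressed as a robust z-score per replicate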
Direction: TNF reporter robust z-score: higher = stronger TNF reporter response to LPS
Active means: 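a well is active when its z-score exceeds 2.8 or falls below -1.5; control wells carry no call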
In all, the deposit lists about 18,000 reagents; shown is an unselected part. About 2,900 of them (16%) count as active. 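Calls are made per well; low scores hint the gene aids the LPS response, high scores that it dampens it.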 Repeated entries: four replicate wells of each siRNA pool.

target gene,TNF reporter robust z-score,Outcome
ZNF619,-0.98,inactive
ZNF619,-0.58,inactive
ZNF619,-0.33,inactive
ZNF619,0.29,inactive
TSC22D4,1.06,inactive
TSC22D4,0.56,inactive
TSC22D4,0.69,inactive
TSC22D4,-0.13,inactive
CCDC170,-0.76,inactive
CCDC170,-0.47,inactive
CCDC170,-0.16,inactive
CCDC170,-1.14,inactive
DMBX1,-0.58,inactive
DMBX1,0.29,inactive
DMBX1,-0.1,inactive
DMBX1,0.44,inactive
ZAP70,0.32,inactive
ZAP70,1.26,inactive
ZAP70,0.9,inactive
ZAP70,2.42,inactive
HGD,-0.61,inactive
HGD,0.27,inactive
HGD,0.35,inactive
HGD,-0.84,inactive
LRRC42,-1.1,inactive
LRRC42,0.46,inactive
LRRC42,-1.05,inactive
LRRC42,-1.02,inactive
RABAC1,0.69,inactive
RABAC1,-0.96,inactive
RABAC1,-0.51,inactive
RABAC1,-1.12,inactive
SSX9P,-1.08,inactive
SSX9P,-0.97,inactive
SSX9P,-0.73,inactive
SSX9P,0.13,inactive
F13B,-0.15,inactive
F13B,-0.04,inactive
F13B,-0.25,inactive
F13B,0.05,inactive
MTFR1L,2.33,inactive
MTFR1L,0.62,inactive
MTFR1L,0.97,inactive
MTFR1L,3.04,active
SLC30A10,-0.86,inactive
SLC30A10,0.02,inactive
SLC30A10,-0.07,inactive
SLC30A10,0.83,inactive

Hits (from the list above):
target gene,TNF reporter robust z-score,Outcome
MTFR1L,3.04,active
